Data as given in publication doi:10.1101/2024.07.03.601930.
Results are given in words; binding and its absence hold for the method and conditions named. For some assays here: Binding seen in cells or lysates may run through a third protein. Some entries that bind do so weakly or less than the wild type. For some assays here: Sequences can lack the tags named with a protein. Blank lines part the entries; values can stand above or below the substance they belong to.

Chains of the proteins cited; added tags and fusions are not shown. Residues count along the entry.
UniProt Q9WV30, whole entry: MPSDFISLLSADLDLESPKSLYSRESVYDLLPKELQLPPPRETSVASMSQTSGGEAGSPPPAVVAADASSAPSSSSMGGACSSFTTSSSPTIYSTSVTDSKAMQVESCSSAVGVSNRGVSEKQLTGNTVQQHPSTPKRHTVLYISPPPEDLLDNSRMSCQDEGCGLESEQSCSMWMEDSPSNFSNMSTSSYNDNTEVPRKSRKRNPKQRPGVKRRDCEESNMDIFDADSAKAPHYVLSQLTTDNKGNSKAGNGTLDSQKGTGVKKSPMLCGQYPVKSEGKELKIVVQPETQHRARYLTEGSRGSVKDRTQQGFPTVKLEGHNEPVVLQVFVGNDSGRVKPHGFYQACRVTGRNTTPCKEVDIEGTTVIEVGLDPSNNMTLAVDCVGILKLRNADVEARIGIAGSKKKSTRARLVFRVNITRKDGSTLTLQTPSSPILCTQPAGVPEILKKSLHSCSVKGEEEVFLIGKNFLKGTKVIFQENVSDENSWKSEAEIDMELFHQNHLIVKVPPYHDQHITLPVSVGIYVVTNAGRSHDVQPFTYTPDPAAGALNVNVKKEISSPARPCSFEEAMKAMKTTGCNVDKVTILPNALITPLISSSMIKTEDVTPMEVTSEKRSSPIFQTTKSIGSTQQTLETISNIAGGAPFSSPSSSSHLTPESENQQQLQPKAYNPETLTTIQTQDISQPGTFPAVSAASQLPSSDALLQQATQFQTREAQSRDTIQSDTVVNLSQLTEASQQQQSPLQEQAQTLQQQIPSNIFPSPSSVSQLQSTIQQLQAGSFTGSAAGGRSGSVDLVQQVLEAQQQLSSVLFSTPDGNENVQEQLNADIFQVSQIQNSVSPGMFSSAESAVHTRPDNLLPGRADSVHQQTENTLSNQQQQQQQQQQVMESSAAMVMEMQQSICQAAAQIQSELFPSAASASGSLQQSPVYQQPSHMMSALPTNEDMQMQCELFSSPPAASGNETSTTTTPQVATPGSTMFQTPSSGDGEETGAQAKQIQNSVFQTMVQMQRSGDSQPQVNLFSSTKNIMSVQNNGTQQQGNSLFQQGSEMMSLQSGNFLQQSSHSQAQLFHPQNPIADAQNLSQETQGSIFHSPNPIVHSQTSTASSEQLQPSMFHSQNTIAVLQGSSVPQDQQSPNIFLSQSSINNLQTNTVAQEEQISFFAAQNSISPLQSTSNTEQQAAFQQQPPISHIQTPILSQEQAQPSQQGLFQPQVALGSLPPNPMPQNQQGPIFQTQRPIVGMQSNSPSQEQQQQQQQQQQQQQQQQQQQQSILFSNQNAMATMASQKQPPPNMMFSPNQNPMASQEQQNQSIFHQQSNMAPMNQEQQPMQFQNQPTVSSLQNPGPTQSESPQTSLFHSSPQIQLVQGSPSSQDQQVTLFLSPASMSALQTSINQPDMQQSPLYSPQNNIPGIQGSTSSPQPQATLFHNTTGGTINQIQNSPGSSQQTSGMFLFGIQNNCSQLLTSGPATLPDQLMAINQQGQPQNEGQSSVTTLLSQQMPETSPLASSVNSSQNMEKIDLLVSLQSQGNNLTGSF
UniProt P97471, whole entry: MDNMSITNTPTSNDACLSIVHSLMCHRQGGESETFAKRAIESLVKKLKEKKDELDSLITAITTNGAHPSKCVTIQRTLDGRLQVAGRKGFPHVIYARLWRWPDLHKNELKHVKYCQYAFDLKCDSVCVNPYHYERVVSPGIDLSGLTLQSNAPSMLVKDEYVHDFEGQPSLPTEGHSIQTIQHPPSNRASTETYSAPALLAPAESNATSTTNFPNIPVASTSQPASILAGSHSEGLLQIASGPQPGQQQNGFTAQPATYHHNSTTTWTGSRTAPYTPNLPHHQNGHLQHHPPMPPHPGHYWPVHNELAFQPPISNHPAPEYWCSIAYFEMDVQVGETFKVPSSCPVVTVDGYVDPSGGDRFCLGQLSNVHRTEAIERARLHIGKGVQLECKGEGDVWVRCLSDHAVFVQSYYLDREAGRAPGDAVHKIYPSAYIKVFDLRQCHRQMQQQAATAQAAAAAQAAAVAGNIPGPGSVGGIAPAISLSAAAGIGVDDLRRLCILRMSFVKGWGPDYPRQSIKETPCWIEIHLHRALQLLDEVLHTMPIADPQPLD
UniProt P70210, whole entry: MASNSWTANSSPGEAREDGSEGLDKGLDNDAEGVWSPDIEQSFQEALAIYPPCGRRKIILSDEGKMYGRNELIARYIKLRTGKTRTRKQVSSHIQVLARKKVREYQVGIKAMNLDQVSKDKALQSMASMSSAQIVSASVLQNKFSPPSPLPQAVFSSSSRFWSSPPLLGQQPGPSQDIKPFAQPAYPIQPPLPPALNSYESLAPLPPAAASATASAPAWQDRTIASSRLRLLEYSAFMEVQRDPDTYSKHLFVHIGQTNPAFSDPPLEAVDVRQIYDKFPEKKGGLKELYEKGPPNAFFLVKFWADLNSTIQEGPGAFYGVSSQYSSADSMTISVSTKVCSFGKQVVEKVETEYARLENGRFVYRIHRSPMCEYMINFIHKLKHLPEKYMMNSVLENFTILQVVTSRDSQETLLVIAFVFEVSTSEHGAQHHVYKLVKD
UniProt Q04206, whole entry: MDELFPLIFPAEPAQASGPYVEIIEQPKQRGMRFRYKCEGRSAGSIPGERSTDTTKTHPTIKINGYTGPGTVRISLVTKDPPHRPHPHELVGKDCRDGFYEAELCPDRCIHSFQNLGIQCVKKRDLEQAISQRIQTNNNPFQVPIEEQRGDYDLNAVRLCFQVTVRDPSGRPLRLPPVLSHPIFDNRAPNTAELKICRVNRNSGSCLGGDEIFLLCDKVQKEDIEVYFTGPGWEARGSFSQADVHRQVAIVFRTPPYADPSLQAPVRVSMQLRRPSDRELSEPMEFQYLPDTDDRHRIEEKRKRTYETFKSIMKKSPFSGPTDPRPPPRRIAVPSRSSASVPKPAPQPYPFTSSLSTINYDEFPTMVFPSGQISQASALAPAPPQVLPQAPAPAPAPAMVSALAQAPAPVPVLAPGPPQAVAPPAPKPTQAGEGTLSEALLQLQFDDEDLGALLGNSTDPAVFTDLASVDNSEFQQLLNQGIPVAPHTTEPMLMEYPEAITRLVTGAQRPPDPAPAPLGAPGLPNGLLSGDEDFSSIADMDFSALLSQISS
UniProt Q04207, 19-304: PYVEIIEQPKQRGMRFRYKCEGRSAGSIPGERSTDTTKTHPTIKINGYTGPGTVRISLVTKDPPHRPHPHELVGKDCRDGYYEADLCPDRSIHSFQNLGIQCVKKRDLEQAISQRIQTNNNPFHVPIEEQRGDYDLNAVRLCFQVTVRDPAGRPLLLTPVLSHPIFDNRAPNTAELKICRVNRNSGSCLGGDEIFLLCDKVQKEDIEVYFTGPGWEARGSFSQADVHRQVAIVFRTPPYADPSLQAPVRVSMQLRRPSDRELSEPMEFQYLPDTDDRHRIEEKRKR
UniProt P25799, 1-435: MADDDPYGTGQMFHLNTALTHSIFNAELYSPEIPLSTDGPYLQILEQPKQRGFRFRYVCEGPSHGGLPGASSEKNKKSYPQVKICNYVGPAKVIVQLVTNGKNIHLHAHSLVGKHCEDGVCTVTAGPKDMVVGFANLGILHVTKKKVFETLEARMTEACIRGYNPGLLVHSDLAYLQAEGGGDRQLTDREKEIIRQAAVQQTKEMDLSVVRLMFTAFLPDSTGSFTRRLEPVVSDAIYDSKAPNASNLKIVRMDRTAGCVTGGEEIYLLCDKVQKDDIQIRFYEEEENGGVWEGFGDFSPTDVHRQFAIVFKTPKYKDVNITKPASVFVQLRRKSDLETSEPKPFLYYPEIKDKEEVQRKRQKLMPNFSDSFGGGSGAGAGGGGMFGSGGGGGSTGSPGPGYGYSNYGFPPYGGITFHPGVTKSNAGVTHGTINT

Assays:
[1] = target: T1, FLAG-tagged Cux1 (UniProt P53564); experiment: co-IP
T1 sequence: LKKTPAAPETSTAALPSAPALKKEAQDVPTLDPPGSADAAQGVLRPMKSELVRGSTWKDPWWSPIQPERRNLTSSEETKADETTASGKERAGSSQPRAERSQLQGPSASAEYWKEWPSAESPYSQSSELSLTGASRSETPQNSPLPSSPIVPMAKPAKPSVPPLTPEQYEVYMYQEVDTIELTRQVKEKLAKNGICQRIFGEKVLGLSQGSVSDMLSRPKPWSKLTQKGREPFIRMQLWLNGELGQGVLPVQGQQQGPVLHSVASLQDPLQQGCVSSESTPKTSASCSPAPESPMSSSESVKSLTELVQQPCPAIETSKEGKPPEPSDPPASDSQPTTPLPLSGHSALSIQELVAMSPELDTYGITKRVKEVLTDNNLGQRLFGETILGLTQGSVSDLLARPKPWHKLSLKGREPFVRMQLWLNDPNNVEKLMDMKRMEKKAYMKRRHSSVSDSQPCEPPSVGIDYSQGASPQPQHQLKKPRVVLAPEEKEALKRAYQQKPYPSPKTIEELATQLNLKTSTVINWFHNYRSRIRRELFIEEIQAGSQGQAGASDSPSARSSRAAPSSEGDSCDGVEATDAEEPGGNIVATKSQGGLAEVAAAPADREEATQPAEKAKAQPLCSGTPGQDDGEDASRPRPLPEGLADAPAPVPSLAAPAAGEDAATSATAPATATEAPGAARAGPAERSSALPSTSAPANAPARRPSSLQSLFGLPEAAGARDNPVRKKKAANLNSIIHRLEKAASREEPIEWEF

[2] = target: FLAG-tagged Nfat5 (UniProt Q9WV30); experiment: co-IP
[3] = target: T2, FLAG-tagged Nfatc1 (UniProt O88942); experiment: co-IP
T2 sequence: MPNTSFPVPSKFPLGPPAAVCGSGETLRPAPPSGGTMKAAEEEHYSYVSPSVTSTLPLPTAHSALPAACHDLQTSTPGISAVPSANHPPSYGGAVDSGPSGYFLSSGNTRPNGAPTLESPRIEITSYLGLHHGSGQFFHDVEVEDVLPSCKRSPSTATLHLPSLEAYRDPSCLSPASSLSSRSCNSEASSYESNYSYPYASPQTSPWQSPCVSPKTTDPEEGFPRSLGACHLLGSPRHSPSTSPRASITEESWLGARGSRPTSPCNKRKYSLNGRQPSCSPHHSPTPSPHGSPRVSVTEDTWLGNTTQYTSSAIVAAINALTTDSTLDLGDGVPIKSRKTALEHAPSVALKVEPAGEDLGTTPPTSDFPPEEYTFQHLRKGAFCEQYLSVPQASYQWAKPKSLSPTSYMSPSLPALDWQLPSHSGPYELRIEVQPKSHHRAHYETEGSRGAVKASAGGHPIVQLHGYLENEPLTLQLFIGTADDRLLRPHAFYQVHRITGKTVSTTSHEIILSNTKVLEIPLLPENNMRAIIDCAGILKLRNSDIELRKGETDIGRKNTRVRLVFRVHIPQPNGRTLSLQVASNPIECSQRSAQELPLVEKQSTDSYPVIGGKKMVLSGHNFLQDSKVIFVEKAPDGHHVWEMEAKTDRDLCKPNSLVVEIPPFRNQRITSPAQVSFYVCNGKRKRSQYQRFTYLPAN

[4] = target: FLAG-tagged Smad4 (UniProt P97471); experiment: co-IP
[5] = target: FLAG-tagged Tead3 (UniProt P70210); experiment: co-IP
[6] = target: Full length His-RelA (1-551) (UniProt Q04206); experiment: SEC
[7] = target: untagged RelA(19-304) (UniProt Q04207); experiment: crystal structure

- binding [1]: binds weakly
- binding [2]: binds weakly
- binding [3]: binds weakly
- binding [4]: binds weakly
- binding [5]: binds weakly
Substance: HA-tagged RelA (from UniProt Q04206 1-551)

- binding [6]: binds
Substance: His-tagged p50 (1-435) (from UniProt P25799 1-435) (domain or fragment)

- binding [3]: binds
Substance: endogenous RelA (from UniProt Q04206 1-551)

- binding [7]: binds
Substance: untagged RelA(19-304) (from UniProt Q04207 19-304) (domain or fragment)
